Part of at least one peptide drawing is inferred or uncertain, most often the ends. Numbered stars: 1 amine (or outer) side, 2 acyl side, 3 side chain; on linkers, the order of the positions; unused ones are H or OH. Square brackets hold non-standard residues; d marks the D form. Side chains are listed from the residue outwards. Peptide text beside a SMILES is read from it. * marks the point of attachment. ξ: configuration not given here. DOTA = O=C(O)CN1CCN(CC(=O)O)CCN(CC(=O)*)CCN(CC(=O)O)CC1; DTPA = O=C(O)CN(CCN(CC(=O)O)CC(=O)O)CCN(CC(=O)O)CC(=O)*; NH(2-(imidazol-4-yl)ethyl) = c1ncc(CCN*)[nH]1; Suc = O=C(CCC(=O)[*:2])[*:1]; X1 = NC(=S)N/N=C/C(=O)*; ξC = NC(CS)C(=O)O
What was measured:
recurrent bladder cancer = format: in vivo, human; settings: 6 weeks later; 40 mCi i.v. after pretargeting
[1] = system: superficial cancer of the urinary bladder; format: in vivo, human
Protocol: Antibody-Mediated Radioimmunotherapy Using a Beta-Emitting Radionuclide A patient with a superficial cancer of the urinary bladder is treated with a 1:1 molar mixture of the bispecific antibody hMN-14×679-F(ab′)2 [anti-CEA×anti-HSG] of example 1, and the carrier-free Y-90-IMP 241 bivalent hapten of example 3, above. The premixed radioimmunotherapy agent is introduced into the bladder via a urethral catheter inserted under local anesthetic. Prior to injection, the bladder is drained completely, and 70 mL of the complex in 70 mL 0.9% NaCl (comprising 20 mg of the bispecific antibody and 10 mCi of Y-90 conjugated to the bivalent hapten) are instilled and allowed 90 minutes to localize by binding to tumor tissue. The unbound radiolabeled is bispecific antibody mixture is then allowed to evacuate the bladder through the urethra, by washing out the bladder using 50 mL 0.9% NaCl, leaving the remaining administered radioactivity bound substantially only to tumor cells. Seventy-two hours later, the patient is taken to the operating room, where biopsies of macroscopically normal urothelium and bladder tumor are made. The urothelium is separated from the underlying mucularis layer and assayed in a beta scintillating counter to allow measurement of radioactivity in the tumor and in the normal tissue, and then the preparations were fixed in formalin for histopathological evaluation. […] Cystoscopic examination of the patient over the following three months indicates a reduction and resorption of sites of apparent cancer by more than approximately 50 percent. The patient receives a repeated administration of this therapy 6 months after the intial one, and experiences another regression of disease by about 30 percent.

`CC(=O)N[C@@H](CCCCNC(=O)CN(CCN(CCN(CC(=O)O)CC(=O)O)CC(=O)O)CC(=O)O)C(=O)N[C@@H](Cc1ccc(O)cc1)C(=O)N[C@@H](CCCCNC(=O)CN(CCN(CCN(CC(=O)O)CC(=O)O)CC(=O)O)CC(=O)O)C(=O)N[C@@H](CCCCNC(=O)C(CS)NC(=O)/C=N/NC(N)=S)C(N)=O` (stereo partly drawn) [Re-188-IMP 192, metal not drawn] (Ac-K(DTPA)YK(DTPA)K([ξC-X1])-NH2) was tested, and the biopsies (recurrent bladder cancer) was “selective tumor-cell necrosis” and the cystoscopic examination (recurrent bladder cancer) was “evidence of reduction of size and number of cancer sites”.

`NC(=O)[C@H](CCCCNC(=O)CNC(=O)CCC(=O)NCCc1cnc[nH]1)NC(=O)[C@@H](Cc1ccc(O)cc1)NC(=O)[C@H](CCCCNC(=O)CNC(=O)CCC(=O)NCCc1cnc[nH]1)NC(=O)[C@H](Cc1ccccc1)NC(=O)CN1CCN(CC(=O)O)CCN(CC(=O)O)CCN(CC(=O)O)CC1` [Y-90-IMP 241, metal not drawn] ({DOTA}-FK([Gly-Suc-NH(2-(imidazol-4-yl)ethyl)])[dY]K([Gly-Suc-NH(2-(imidazol-4-yl)ethyl)])-NH2) was tested, and the “histology of tumor sites” value ([1]; biopsies 72 hours after instillation of premix with hMN-14×679-F(ab′)2) was “areas of marked degeration and necrosis in tumor sites”, the “cystoscopic examination at one year” value ([1]; one year following initial therapy) was “a few small foci of apparent carcinoma, but these do not seem to have grown” and the “reduction and resorption of sites of apparent cancer (cystoscopic examination)” value ([1]; over the three months following first therapy) was over 50%. For the same compound, the “regression of disease after repeated administration” value ([1]; repeated therapy 6 months after the initial one) was “about 30%”.

— patent publication US20040022726A1, “Methods and compositions for intravesical therapy of bladder cancer” (priority 2002, published 2004)
